# Data from PubChem BioAssay AID504467 (National Center for Advancing Translational Sciences (NCATS), 2011).
# Out of some 330,000 compounds screened, about 7,700 (2.3%) were called active. The inconclusive results got no clear call from the source; some entries with a clear call stand among them for comparison. The call rests on the fitted dose curve; in most records, active means well fitted inhibition curve with a large enough effect; inconclusive means small, poorly fitted or top-dose-only effect, or effect the other way; inactive means flat fitted curve, though single readings scatter. Potencies of inconclusive entries are doubtful fits and often do not repeat.
# Assay: qHTS screen for small molecules that inhibit ELG1-dependent DNA repair in human embryonic kidney (HEK293T) cells expressing luciferase-tagged ELG1; further: nearly all actives have a fitted effect of over 55% in size
# Details: HEK293T ELG1-luciferase reporter, luminescence, 16 h, DNA damage induced by 5-fluorouridine; series mostly up to 46.1 µM
# Outline: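 Cells (2,000 per well) received 5-fluorouridine plus test compound or DMSO and were incubated 16 hr at 37 °C, 5% CO2. Luciferase activity was read by luminescence 30 min after ONE-Glo addition; signal suppression marked inhibition of damage-induced ELG1 function.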
# Potency means the concentration at half of the fitted maximal effect.
row,Compound,Potency
1,CCC(=O)N1CCc2cc(S(=O)(=O)NCCC(=O)N3CCN(c4cccc(C)c4)C(C)C3)ccc21 (stereo unspecified),"inconclusive: 20.6 µM [inhibitor, partial curve, poor fit]"
2,O=C(N/N=C/c1c[nH]c2ccccc12)c1ccc(Br)cc1,"inconclusive: 11.2 µM [activator, partial curve, poor fit]"
3,NC(=O)N/N=C/C=C/c1ccc(F)cc1,"inconclusive: 16.4 µM [activator, partial curve, poor fit]"
4,O=C(COc1ccccc1)N=C1SC2CS(=O)(=O)CC2N1Cc1ccccc1 (stereo unspecified),inactive
5,COC(=O)c1ccc(N2CCN(S(=O)(=O)c3ccccc3)CC2)c([N+](=O)[O-])c1,"inconclusive: 29.1 µM [inhibitor, single point]"
6,COc1ccccc1Nc1ccc2nonc2c1[N+](=O)[O-],inactive
7,c1ccc(-c2nc(NCC3CCCO3)c3ccccc3n2)nc1 (stereo unspecified),active: 18.4 µM
8,Cc1cc(=O)[nH]c2nnc(SCC(=O)N3CC(C)OC(C)C3)n12 (stereo unspecified),inactive
9,CCOC(=O)c1sc(=NC(=O)c2ccccc2)n(C)c1C,"inconclusive: 4.11 µM [activator, full curve]"
10,COCCCNCC1C(Oc2ccc(Cl)cc2)C(=O)N1c1ccccc1C (stereo unspecified),inactive
11,CNC(=O)CCSc1ccc(C)cc1,"inconclusive: 32.6 µM [activator, partial curve, poor fit]"
12,COC(=O)C1=NN(C(=O)c2ccccc2)C(C)(O)C1 (stereo unspecified),"inconclusive: 23.1 µM [activator, partial curve, poor fit]"
13,O=C(Cn1cc(C(F)(F)F)ccc1=O)N/N=C/c1ccccc1O,active: 18.3 µM
14,CCCc1cc(-c2ccc3c(c2)COc2c4ccccc4nn2-3)on1,"inconclusive: 2 µM [activator, partial curve]"
15,O=C(c1ccco1)N1CCN(CCCCN2C(=O)c3ccccc3C2=O)CC1,inactive
16,CCOc1ccc2nc(N3CCC(C(=O)NC4CCCCC4)CC3)sc2c1,inactive
17,Cc1ccc(N(Cc2ccc(C(=O)NCCSc3ccccn3)cc2)S(C)(=O)=O)cc1C,active: 9.2 µM
18,Cc1nc([N+](=O)[O-])c(N2CCN(Cc3ccccc3)CC2)n1Cc1ccccc1,inactive
19,CN(C)/C=C/C(=O)c1cccc([N+](=O)[O-])c1,inactive
20,O=C(Cn1c(=O)[nH]c2ccccc2c1=O)N1CCN(Cc2ccc3c(c2)OCO3)CC1,active: 23.1 µM
21,Cc1ccc(-c2csc3ncn(CC(=O)OC(C)C)c(=O)c23)cc1,"inconclusive: 23.1 µM [inhibitor, single point]"

# Another view of 2 compounds above:
row | Compound | Potency
6 | COc1ccccc1Nc1ccc2nonc2c1[N+](=O)[O-] | inactive
7 | c1ccc(-c2nc(NCC3CCCO3)c3ccccc3n2)nc1 (stereo unspecified) | active: 18.4 µM
